Data taken from ChEMBL document CHEMBL3988442, “University of Dundee, Small-Polar-MMV Screening Library” (2021).

Each number is a percent effect as filed.
How 0% and 100% were set is not recorded. Most values in the screen are low, and negative values occur.
The compounds are a random part of those screened.
Two or more numbers in one place are separate tests of the same structure; such repeats can differ widely.

Mtb cholesterol medium: 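Growth of Mycobacterium tuberculosis over 4 days (cholesterol / DPPC medium with tyloxapol); the read-out is not stated. Concentration: 50 µM. The record gives no direction; compounds that gave an IC50 in retests scored well above the rest, so higher reads as more growth inhibition. Of about 69,000 compounds tested this way, about 370 (0.54%) reached 50% or more in at least one test.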
Mtb glucose medium: 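Whole-cell growth test on Mycobacterium tuberculosis, read after 3 days in glucose-containing 7H9 medium; the read-out is not stated. Tested at 50 µM. Direction is inferred from retests: higher values go with more growth inhibition. Size under these conditions: about 69,000 compounds, about 760 of them at 50% or above in at least one test.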

{"compound": "NC(=O)c1ccc(N2CCN(CCCc3cn[nH]c3)CC2)cc1", "Mtb cholesterol medium": -2.447, "Mtb glucose medium": 16.42}
{"compound": "Cl.FC(F)(F)c1ccc(-c2cnc(C3CCCN3)cn2)cc1", "stereo": "stereo unspecified", "Mtb cholesterol medium": "50.49 and 37.43", "Mtb glucose medium": 56.38}
{"compound": "Cc1ccc(S(C)(=O)=O)cc1NCC(=O)NCCC1=CCCCC1", "Mtb cholesterol medium": 6.03, "Mtb glucose medium": -4.378}
{"compound": "CCOCCN1CCN(Cc2nc(C)no2)CC1CC", "stereo": "stereo unspecified", "Mtb cholesterol medium": 18.64, "Mtb glucose medium": "21.18 and -3.511"}
{"compound": "COCCCNC(=O)Nc1c(C)cccc1C(C)C", "Mtb cholesterol medium": -25.14, "Mtb glucose medium": -17.23}
{"compound": "CN(CCC#N)C(=O)Cn1cnc2c(Br)cccc2c1=O", "Mtb cholesterol medium": -11.91, "Mtb glucose medium": -28.75}
{"compound": "Clc1ccccc1OC1CCN(CC2CCOC2)CC1", "stereo": "stereo unspecified", "Mtb cholesterol medium": -2.506, "Mtb glucose medium": 16.03}
{"compound": "CN(C)C(=O)N1CCN(c2cc(N3CCCC3CO)ncn2)CC1", "stereo": "stereo unspecified", "Mtb cholesterol medium": -6.251, "Mtb glucose medium": -1.151}
{"compound": "COc1ccc(CC(=O)N2CCC[C@@H](N)[C@@H]2c2ccccc2F)cc1.Cl", "Mtb cholesterol medium": "1.614 and 3.506", "Mtb glucose medium": 13.98}
{"compound": "CC(C)N1CCCC1c1nc(N(C)C)ncc1I", "stereo": "stereo unspecified", "Mtb cholesterol medium": -5.574, "Mtb glucose medium": 8.698}
{"compound": "COCCN(c1cc(C)nc2nc(C(F)(F)F)nn12)C1CCCC1", "Mtb cholesterol medium": -86.13}
{"compound": "COc1cc(CNC(=O)NCc2c(C)cc(C)[nH]c2=O)ccc1C", "Mtb cholesterol medium": 10.11, "Mtb glucose medium": 11.57}
{"compound": "Cn1c(C2CC2)nc2c1CCN(CC(=O)Nc1nccs1)C2", "Mtb cholesterol medium": 2.347, "Mtb glucose medium": 14.97}
{"compound": "O=C(O)C(F)(F)F.[H][C@]12CCN(CC3CC3)C[C@]1([H])CN(c1ncc(C)cn1)C2", "Mtb cholesterol medium": 25.64, "Mtb glucose medium": "-49.9 and -12.86"}
{"compound": "CCCc1ncc(CN(C)C2CCCN(CCc3ccccc3)C2)cn1", "stereo": "stereo unspecified", "Mtb cholesterol medium": "17.68 and 5.353", "Mtb glucose medium": 21.6}
{"compound": "CC(C)Cc1noc(CN2CCN(C(=O)c3ccco3)CC2)n1", "Mtb cholesterol medium": -6.119, "Mtb glucose medium": 5.251}
{"compound": "CCn1cc(C(=O)NCc2cccnc2N(C)Cc2ccccc2)cn1", "Mtb cholesterol medium": -12.41, "Mtb glucose medium": "-1.349 and 1.851"}
{"compound": "c1ccc(-c2nccc(CNC3CCc4ncnn4C3)n2)cc1", "stereo": "stereo unspecified", "Mtb cholesterol medium": -12.38, "Mtb glucose medium": 30.64}
{"compound": "COc1ccc(-c2nc(CN3CC(n4cc(C)cn4)C3)no2)cc1", "Mtb cholesterol medium": 51.03, "Mtb glucose medium": 48.04}
{"compound": "Cc1nc(CN2CCN(CCCc3ccccc3)CC2)no1", "Mtb cholesterol medium": "1.743 and -5.293", "Mtb glucose medium": 9.176}
{"compound": "Cc1nc(C)c(CC(=O)Nc2ncc(C)s2)c(=O)[nH]1", "Mtb cholesterol medium": 4.357, "Mtb glucose medium": 13.27}
{"compound": "CC(N(C)Cc1nc2c(cnn2C)c(=O)[nH]1)C(C)(C)C", "stereo": "stereo unspecified", "Mtb cholesterol medium": -21.48, "Mtb glucose medium": -26.98}
{"compound": "Cc1ncsc1CCN1CCC(N(C)Cc2ncc(C(C)C)o2)C1", "stereo": "stereo unspecified", "Mtb cholesterol medium": -28.76, "Mtb glucose medium": "-7.395 and -15.83"}
{"compound": "Cc1cc(NC(=O)CCn2nc(C)c3ccccc32)n(C)n1", "Mtb cholesterol medium": 9.573, "Mtb glucose medium": -5.687}
{"compound": "Cn1cc(CN2CCC[C@]3(C[C@@H](Oc4ccccn4)CO3)C2)cn1.O=C(O)C(F)(F)F.O=C(O)C(F)(F)F", "Mtb cholesterol medium": -2.853, "Mtb glucose medium": 8.66}
{"compound": "CC(=O)NC(c1cc(F)ccc1F)C1CC1", "stereo": "stereo unspecified", "Mtb cholesterol medium": 9.714, "Mtb glucose medium": -9.668}
{"compound": "COc1cccc(CC(=O)N2CCCC2c2nc(C)c(F)c(O)n2)c1", "stereo": "stereo unspecified", "Mtb cholesterol medium": -4.023, "Mtb glucose medium": 0.798}
{"compound": "COc1ccccc1OCCNCCn1cccn1", "Mtb cholesterol medium": -28.44, "Mtb glucose medium": 11.63}
{"compound": "O=C(O)C(F)(F)F.O=C(O)C(F)(F)F.[H][C@@]12COC[C@@H](N3CCCC3)[C@]1([H])CN(Cc1ccc3c(c1)OCO3)C2", "Mtb cholesterol medium": 12.89, "Mtb glucose medium": "2.556 and -2.554"}
{"compound": "O=C(NCC1CCCO1)c1nc2c(s1)CCCN2C(=O)C1CC1", "stereo": "stereo unspecified", "Mtb cholesterol medium": -6.585, "Mtb glucose medium": 33.31}
{"compound": "Cc1ccc(CN2CCc3c(CN(C)C)n[nH]c3C2)s1.O=C(O)C(F)(F)F.O=C(O)C(F)(F)F", "Mtb cholesterol medium": -2.411, "Mtb glucose medium": 12.57}
{"compound": "COc1ccc2c(c1)CC(C(=O)N(C)Cc1noc3c1CCCC3)CO2", "stereo": "stereo unspecified", "Mtb cholesterol medium": 7.386, "Mtb glucose medium": "-1.747 and -5.94"}
{"compound": "[H][C@@]12CCN(Cc3cnn(C)c3)C[C@@]1([H])O[C@@H](c1nc(C)c(C)s1)C2", "Mtb cholesterol medium": -6.621, "Mtb glucose medium": "-1.615 and -11.85"}
{"compound": "Cc1nn(C)cc1CN(C)C(=O)c1ccncc1", "Mtb cholesterol medium": -0.3031, "Mtb glucose medium": -0.5715}
{"compound": "CNCC(=O)Nc1cccc(-c2cnc(NCCO)nc2)c1", "Mtb cholesterol medium": -14.81, "Mtb glucose medium": -12.41}
{"compound": "Cc1nc(C2CCCN(C(=O)c3ccc(Cn4cccn4)o3)C2)no1", "stereo": "stereo unspecified", "Mtb cholesterol medium": -2.258, "Mtb glucose medium": 14.19}
{"compound": "O=C(O)C(F)(F)F.c1coc(CN2CCc3nnc(COc4cncnc4)n3CC2)c1", "Mtb cholesterol medium": 5.298, "Mtb glucose medium": 4.139}
{"compound": "COCCOc1nc(-c2ccccc2Cl)no1", "Mtb cholesterol medium": 5.242, "Mtb glucose medium": 12.92}
{"compound": "Cn1ccc(C(=O)NCc2ccc(CN3CCCC3)cc2)cc1=O", "Mtb cholesterol medium": -7.78, "Mtb glucose medium": 2.618}
{"compound": "O=C(O)C(F)(F)F.[H][C@@]12CCCO[C@]1([H])[C@H](NC(=O)c1cscn1)CN2Cc1cccs1", "Mtb cholesterol medium": -7.322, "Mtb glucose medium": "-0.734 and 2.757"}
{"compound": "COc1c(C)cnc(CNCC(C)C)c1C", "Mtb cholesterol medium": 2.684, "Mtb glucose medium": 8.905}
{"compound": "Cc1cc(NC(=O)CCCn2ccnc2C)nc(C(C)C)n1", "Mtb cholesterol medium": 16.64, "Mtb glucose medium": 25.03}
{"compound": "O=C(NC1CCC1)C1=NOC2(CCN(Cc3ccc(F)cc3)C2)C1", "stereo": "stereo unspecified", "Mtb cholesterol medium": -19.37, "Mtb glucose medium": -35.21}
{"compound": "CCOCc1ccc(CNc2cncc(-n3cccn3)n2)cc1", "Mtb cholesterol medium": 20.78, "Mtb glucose medium": 14.51}
{"compound": "CC/C=C(\\C)CN1CCC(CNC(=O)c2ccc(=O)[nH]c2)CC1", "Mtb cholesterol medium": -6.582, "Mtb glucose medium": 21.79}
{"compound": "c1ccc(CCN2CCN(c3ccc4nncn4n3)CC2)nc1", "Mtb cholesterol medium": -13.4, "Mtb glucose medium": -2.416}

Once more, the final 4:

- O=C(NC1CCC1)C1=NOC2(CCN(Cc3ccc(F)cc3)C2)C1 (stereo unspecified) | Mtb cholesterol medium: -19.37%; Mtb glucose medium: -35.21%
- CCOCc1ccc(CNc2cncc(-n3cccn3)n2)cc1 | Mtb cholesterol medium: 20.78%; Mtb glucose medium: 14.51%
- CC/C=C(\C)CN1CCC(CNC(=O)c2ccc(=O)[nH]c2)CC1 | Mtb cholesterol medium: -6.582%; Mtb glucose medium: 21.79%
- c1ccc(CCN2CCN(c3ccc4nncn4n3)CC2)nc1 | Mtb cholesterol medium: -13.4%; Mtb glucose medium: -2.416%